# Measured values as given in paper PMC2375285, “Inhibition of all-TRANS-retinoic acid metabolism by R116010 induces antitumour activity” (British Journal of Cancer, 2002).
# Biological target: T1, aromatase (CYP19) (Homo sapiens, UniProt P11511)
# T1 construct: aromatase (CYP19) in human placental microsomes; from tissue; host or cells: human placenta, microsomes
# T1 sequence (P11511 1-503): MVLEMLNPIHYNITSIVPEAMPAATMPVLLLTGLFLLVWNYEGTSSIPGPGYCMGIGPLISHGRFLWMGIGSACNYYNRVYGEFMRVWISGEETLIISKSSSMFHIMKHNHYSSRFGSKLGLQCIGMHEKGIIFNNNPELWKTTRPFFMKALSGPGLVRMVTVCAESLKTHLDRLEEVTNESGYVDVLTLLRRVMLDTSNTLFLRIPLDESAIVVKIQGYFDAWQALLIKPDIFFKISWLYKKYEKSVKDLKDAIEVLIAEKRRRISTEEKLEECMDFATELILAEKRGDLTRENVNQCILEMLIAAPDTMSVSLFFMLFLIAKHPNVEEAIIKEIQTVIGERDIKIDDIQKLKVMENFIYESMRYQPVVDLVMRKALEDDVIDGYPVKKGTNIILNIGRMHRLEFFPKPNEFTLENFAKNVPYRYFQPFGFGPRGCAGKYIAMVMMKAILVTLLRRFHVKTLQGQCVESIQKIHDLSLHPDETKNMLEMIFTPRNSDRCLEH
# Test: Aromatase, conversion of androstenedione to estrone in human placental microsomes
# Format: biochemical
compound,measurement,value
"Clc1cccc(C(c2ccc3[nH]cnc3c2)n2ccnc2)c1.Clc1cccc(C(c2ccc3[nH]cnc3c2)n2ccnc2)c1.O=C(O)/C=C/C(=O)O.O=C(O)/C=C/C(=O)O.O=C(O)/C=C/C(=O)O (racemic) [liarozole-fumarate, ±-5-[(3-chlorophenyl)(1H-imidazole-1-yl)methyl]-1H-benzimidazole (E)-2-butenedioate (2:3), reference compound]",IC50,3 nM
